Experimental data as given in PMC12670160, “A drug-repurposing screen of FDA- and EMA-approved drugs identifies two NF-κB inhibitors active against eumycetoma” (Journal of Antimicrobial Chemotherapy, 2025).
Counter-ions that a name gives are not always drawn. In all, about 5,300 compounds went through this assay and about 130 (2.5%) showed an effect of 50% or more. The list shows a part of the results.

System: M. mycetomatis strain mm55
Details: primary screen, metabolic activity vs growth control; 96 h, 2 µM; inhibitor

Compound	% viability
CC(C)OC(=O)OCOP(=O)(CO[C@H](C)Cn1cnc2c(N)ncnc21)OCOC(=O)OC(C)C [ONC0004663, tenofovir disoproxil fumarate]	98.91%
C=CC(=O)N1CCCC(n2c(=O)n(-c3ccc(Oc4ccccc4)cc3)c3c(N)ncnc32)C1 (stereo not shown) [ONC0004392, ono4059]	98.71%
C[N+](C)(C)CC(=O)O [ONC0000528, betaine hydrochloride]	65.55%
O=C(O)c1ccccc1C(=O)Nc1ccc(S(=O)(=O)Nc2nccs2)cc1 [ONC0000650, phthalylsulfathiazole]	115.2%
O=c1[nH]c2ccccc2n1CCCN1CCC(n2c(=O)[nH]c3cc(Cl)ccc32)CC1 [ONC0003886, domperidone]	64.34%
CN(c1nccc(=O)[nH]1)C1CCN(c2nc3ccccc3n2Cc2ccc(F)cc2)CC1 [ONC0004622, mizolastine mizollen]	58.02%
OCCN(CCO)c1nc(N2CCCCC2)c2nc(N(CCO)CCO)nc(N3CCCCC3)c2n1 [ONC0000691, dipyridamole]	121.2%
Cc1ccc(NC(=O)c2cccc(C(C)(C)C#N)c2)cc1Nc1ccc2ncn(C)c(=O)c2c1 [ONC0000069, az628]	82.55%
CCc1nc(C)ccc1O [ONC0003743, emoxipin]	128.3%
CC[C@H](CO)Nc1nc(NCc2ccccc2)c2ncn(C(C)C)c2n1 [ONC0004717, roscovitine seliciclib cyc202]	138.2%
NC(=O)c1nnn(Cc2cc(Cl)c(C(=O)c3ccc(Cl)cc3)c(Cl)c2)c1N [ONC0005496, carboxyamidotriazole]	98.65%
CN1CC[C@@H]2CN3CCc4cccc(c43)[C@@H]2C1 [ONC0002584, sdzser082]	50.18%
COC(=O)[C@@H]1CC2=CC(=O)CC[C@]2(C)[C@@]23O[C@@H]2C[C@@]2(C)[C@@H](CC[C@@]24CCC(=O)O4)[C@H]13 [ONC0001296, eplerenone]	126.2%
CC(C)OC(=O)C1=CN(C(=O)c2ccc(F)c(F)c2)CC(C)(C)c2c1[nH]c1ccccc21 [turofexorate isopropyl xl335]	92.43%
CN1CCN(C(c2ccccc2)c2ccccc2)CC1 [ONC0000283, cyclizine]	71.97%
O=C(/C=C\n1cnc(-c2cc(C(F)(F)F)cc(C(F)(F)F)c2)n1)N1CC(F)(F)C1 [ONC0004404, kpt276]	112.1%

Reformatted: entries from further up.
Compound | % viability
O=c1[nH]c2ccccc2n1CCCN1CCC(n2c(=O)[nH]c3cc(Cl)ccc32)CC1 [ONC0003886, domperidone] | 64.34%
NC(=O)c1nnn(Cc2cc(Cl)c(C(=O)c3ccc(Cl)cc3)c(Cl)c2)c1N [ONC0005496, carboxyamidotriazole] | 98.65%
